Paper PMC3900477

Chains of the proteins cited; added tags and fusions are not shown. Lines headed by an entry give the natural chain unless they say otherwise; changes in a name come on top.
UniProt Q9C5K8: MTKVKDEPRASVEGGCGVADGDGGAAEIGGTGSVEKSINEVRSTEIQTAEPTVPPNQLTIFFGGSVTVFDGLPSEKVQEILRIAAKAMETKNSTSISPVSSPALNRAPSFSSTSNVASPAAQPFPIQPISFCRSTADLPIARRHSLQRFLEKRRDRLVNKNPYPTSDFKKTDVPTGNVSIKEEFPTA
UniProt Q9S7M2: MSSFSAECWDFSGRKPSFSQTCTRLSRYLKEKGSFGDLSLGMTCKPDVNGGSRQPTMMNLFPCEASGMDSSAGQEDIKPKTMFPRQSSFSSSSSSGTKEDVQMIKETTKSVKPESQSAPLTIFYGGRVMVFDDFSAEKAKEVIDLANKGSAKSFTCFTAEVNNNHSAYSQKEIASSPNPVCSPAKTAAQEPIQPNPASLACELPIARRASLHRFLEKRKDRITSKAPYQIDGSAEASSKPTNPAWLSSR
UniProt O23487: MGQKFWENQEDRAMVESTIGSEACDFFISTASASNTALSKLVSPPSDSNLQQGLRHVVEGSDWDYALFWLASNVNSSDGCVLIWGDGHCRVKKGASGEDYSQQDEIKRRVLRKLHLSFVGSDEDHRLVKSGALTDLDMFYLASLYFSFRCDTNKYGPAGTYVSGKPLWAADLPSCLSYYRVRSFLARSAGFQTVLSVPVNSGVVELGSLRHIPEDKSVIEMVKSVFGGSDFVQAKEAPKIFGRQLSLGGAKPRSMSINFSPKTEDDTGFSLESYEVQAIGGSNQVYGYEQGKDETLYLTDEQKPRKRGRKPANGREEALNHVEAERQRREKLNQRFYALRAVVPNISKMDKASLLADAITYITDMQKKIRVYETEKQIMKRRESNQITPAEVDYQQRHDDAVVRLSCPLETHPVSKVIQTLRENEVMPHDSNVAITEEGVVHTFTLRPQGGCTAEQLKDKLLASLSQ
UniProt Q9LNJ5: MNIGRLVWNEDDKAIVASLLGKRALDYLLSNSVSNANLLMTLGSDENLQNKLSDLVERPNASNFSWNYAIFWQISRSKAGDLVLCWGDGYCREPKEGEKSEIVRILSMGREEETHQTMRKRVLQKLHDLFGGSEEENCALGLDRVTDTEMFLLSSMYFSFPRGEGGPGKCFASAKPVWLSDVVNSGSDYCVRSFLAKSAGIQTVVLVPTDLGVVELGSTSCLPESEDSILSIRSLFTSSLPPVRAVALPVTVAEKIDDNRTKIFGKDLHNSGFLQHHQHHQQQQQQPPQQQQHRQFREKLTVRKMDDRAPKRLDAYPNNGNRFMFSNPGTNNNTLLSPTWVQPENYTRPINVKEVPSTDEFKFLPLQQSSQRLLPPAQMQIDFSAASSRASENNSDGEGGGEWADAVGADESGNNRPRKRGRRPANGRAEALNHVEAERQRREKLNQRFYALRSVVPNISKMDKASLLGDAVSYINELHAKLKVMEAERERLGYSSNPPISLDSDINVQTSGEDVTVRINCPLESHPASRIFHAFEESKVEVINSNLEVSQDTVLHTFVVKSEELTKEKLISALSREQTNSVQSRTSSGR
UniProt Q9ZPY8: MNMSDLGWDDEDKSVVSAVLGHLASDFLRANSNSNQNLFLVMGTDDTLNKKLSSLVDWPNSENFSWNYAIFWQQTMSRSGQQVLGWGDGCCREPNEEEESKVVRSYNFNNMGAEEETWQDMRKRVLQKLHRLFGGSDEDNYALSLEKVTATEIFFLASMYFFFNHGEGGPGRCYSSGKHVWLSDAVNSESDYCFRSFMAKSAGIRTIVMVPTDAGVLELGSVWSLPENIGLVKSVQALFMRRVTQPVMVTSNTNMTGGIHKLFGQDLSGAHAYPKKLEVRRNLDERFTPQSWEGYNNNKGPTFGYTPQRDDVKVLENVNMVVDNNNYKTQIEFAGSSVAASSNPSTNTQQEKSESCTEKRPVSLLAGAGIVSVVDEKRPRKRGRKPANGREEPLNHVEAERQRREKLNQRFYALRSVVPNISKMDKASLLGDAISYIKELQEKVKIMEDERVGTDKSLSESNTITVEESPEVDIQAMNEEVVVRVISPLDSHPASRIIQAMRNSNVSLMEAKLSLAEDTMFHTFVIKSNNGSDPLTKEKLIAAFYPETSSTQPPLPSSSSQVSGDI

Key:
[1] = molecular target: T1, JAZ9-BD (Arabidopsis thaliana) (UniProt Q8W4J8); experiment: two-hybrid; yeast AH109 co-transformed with JAZ-BD (pGBKT7) and bHLH-AD (pGADT7); growth for 3 days at 30°C on medium lacking Ade, His, Leu and Trp
T1 sequence: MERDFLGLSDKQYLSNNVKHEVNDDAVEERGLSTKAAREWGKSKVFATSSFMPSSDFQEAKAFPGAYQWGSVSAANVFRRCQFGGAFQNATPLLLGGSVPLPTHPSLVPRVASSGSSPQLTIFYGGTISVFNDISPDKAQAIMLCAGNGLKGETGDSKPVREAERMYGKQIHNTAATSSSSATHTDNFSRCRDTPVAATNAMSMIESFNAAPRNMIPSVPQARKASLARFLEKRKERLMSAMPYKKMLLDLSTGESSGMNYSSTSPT

[2] = molecular target: T2, JAZ4-BD (Arabidopsis thaliana) (UniProt Q58G47); experiment: as above
T2 sequence: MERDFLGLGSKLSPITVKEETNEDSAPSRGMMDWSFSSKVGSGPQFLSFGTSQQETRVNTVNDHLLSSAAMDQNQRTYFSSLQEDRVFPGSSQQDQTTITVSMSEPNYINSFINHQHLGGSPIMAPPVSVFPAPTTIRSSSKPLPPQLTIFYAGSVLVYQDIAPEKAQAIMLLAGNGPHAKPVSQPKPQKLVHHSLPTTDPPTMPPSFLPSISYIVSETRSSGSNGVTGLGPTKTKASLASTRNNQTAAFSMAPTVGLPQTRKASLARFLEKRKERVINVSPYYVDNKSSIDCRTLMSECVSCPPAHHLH

[3] = molecular target: JAZ12-BD (Arabidopsis thaliana) (UniProt Q9C5K8); experiment: as above
[4] = molecular target: T3, JAZ11-BD (Arabidopsis thaliana) (UniProt Q9M246); experiment: as above
T3 sequence: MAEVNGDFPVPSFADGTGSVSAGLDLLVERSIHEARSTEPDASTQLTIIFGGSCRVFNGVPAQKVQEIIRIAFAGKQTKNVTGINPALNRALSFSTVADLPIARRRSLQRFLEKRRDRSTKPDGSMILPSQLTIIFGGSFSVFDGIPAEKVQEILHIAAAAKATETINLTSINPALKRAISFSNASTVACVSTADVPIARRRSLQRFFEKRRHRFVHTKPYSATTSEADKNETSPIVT

[5] = molecular target: JAZ2-BD (Arabidopsis thaliana) (UniProt Q9S7M2); experiment: as above
[6] = molecular target: T4, JAZ7-BD (Arabidopsis thaliana) (UniProt O64687); experiment: as above
T4 sequence: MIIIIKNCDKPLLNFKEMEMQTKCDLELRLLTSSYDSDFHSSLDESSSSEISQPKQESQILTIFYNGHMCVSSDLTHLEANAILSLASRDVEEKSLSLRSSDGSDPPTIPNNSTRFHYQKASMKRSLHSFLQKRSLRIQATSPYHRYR

[7] = molecular target: MBP-JAZ2 (Arabidopsis thaliana) (UniProt Q9S7M2); experiment: pull-down; recombinant MBP fusion (MBP-JAZ or MBP-bHLH) from E. coli as bait; bHLH-HA in extracts of 10-day-old transgenic Arabidopsis seedlings (50 mM Tris-HCl pH 7.4, 80 mM NaCl, 10% glycerol, 0.1% Tween-20, 1 mM DTT, MG132); anti-HA immunoblot; only the target purified
[8] = molecular target: T5, MBP-JAZ11 (Arabidopsis thaliana) (UniProt Q9M246); experiment: as above
T5 sequence: T3 sequence

[9] = molecular target: T6, MBP-JAZ9 (Arabidopsis thaliana) (UniProt Q8W4J8); experiment: as above
T6 sequence: T1 sequence

[10] = molecular target: T7, MBP-JAZ4 (Arabidopsis thaliana) (UniProt Q58G47); experiment: as above
T7 sequence: T2 sequence

[11] = molecular target: T8, JAZ3-BD (Arabidopsis thaliana) (UniProt Q9LVI4); experiment: two-hybrid; yeast AH109 co-transformed with JAZ-BD (pGBKT7) and bHLH-AD (pGADT7); growth for 3 days at 30°C on medium lacking Ade, His, Leu and Trp
T8 sequence: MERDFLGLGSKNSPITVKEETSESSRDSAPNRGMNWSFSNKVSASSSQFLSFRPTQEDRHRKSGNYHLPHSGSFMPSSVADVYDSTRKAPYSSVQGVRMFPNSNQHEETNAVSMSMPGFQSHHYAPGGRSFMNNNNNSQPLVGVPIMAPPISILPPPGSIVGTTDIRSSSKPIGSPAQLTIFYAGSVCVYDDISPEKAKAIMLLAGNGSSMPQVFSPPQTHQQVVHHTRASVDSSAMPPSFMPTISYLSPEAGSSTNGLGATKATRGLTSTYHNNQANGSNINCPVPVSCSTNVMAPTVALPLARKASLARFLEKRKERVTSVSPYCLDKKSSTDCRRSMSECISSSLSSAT

[12] = molecular target: MBP-bHLH003 (Arabidopsis thaliana) (UniProt O23487); experiment: pull-down; recombinant MBP fusion (MBP-JAZ or MBP-bHLH) from E. coli as bait; bHLH-HA in extracts of 10-day-old transgenic Arabidopsis seedlings (50 mM Tris-HCl pH 7.4, 80 mM NaCl, 10% glycerol, 0.1% Tween-20, 1 mM DTT, MG132); anti-HA immunoblot; only the target purified
[13] = molecular target: T9, MBP-JAZ7 (Arabidopsis thaliana) (UniProt O64687); experiment: as above
T9 sequence: T4 sequence

[14] = molecular target: T10, MBP-JAZ3 (Arabidopsis thaliana) (UniProt Q9LVI4); experiment: as above
T10 sequence: T8 sequence

[15] = molecular target: MBP-bHLH013 (Arabidopsis thaliana) (UniProt Q9LNJ5); experiment: as above
[16] = molecular target: T11, JAZ10-BD (Arabidopsis thaliana) (UniProt Q93ZM9); experiment: two-hybrid; yeast AH109 co-transformed with JAZ-BD (pGBKT7) and bHLH-AD (pGADT7); growth for 3 days at 30°C on medium lacking Ade, His, Leu and Trp
T11 sequence: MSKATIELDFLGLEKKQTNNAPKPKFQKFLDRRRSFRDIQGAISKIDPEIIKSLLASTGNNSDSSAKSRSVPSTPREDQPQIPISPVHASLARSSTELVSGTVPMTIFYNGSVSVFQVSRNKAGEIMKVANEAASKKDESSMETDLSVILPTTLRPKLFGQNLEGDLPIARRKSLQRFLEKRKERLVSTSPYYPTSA

[17] = molecular target: T12, JAZ8-BD (Arabidopsis thaliana) (UniProt Q8LBM2); experiment: as above
T12 sequence: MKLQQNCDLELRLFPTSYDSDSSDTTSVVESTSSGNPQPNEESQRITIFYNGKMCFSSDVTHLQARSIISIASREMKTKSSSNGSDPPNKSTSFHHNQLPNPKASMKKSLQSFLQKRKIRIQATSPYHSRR

[18] = molecular target: MBP-bHLH017 (Arabidopsis thaliana) (UniProt Q9ZPY8); experiment: pull-down; recombinant MBP fusion (MBP-JAZ or MBP-bHLH) from E. coli as bait; bHLH-HA in extracts of 10-day-old transgenic Arabidopsis seedlings (50 mM Tris-HCl pH 7.4, 80 mM NaCl, 10% glycerol, 0.1% Tween-20, 1 mM DTT, MG132); anti-HA immunoblot; only the target purified
[19] = molecular target: T13, MBP-JAZ8 (Arabidopsis thaliana) (UniProt Q8LBM2); experiment: as above
T13 sequence: T12 sequence

[20] = molecular target: MBP-JAZ12 (Arabidopsis thaliana) (UniProt Q9C5K8); experiment: as above
[21] = molecular target: T14, MBP-JAZ10 (Arabidopsis thaliana) (UniProt Q93ZM9); experiment: as above
T14 sequence: T11 sequence

For bHLH003-AD (from UniProt O23487), the binding [1] was “binds”, the binding [2] was “binds” and the binding [3] was “no binding”. For the same substance, the binding [4] was “binds”, the binding [5] was “binds” and the binding [6] was “no binding”.
In the case of bHLH003-HA (from UniProt O23487), the binding [7] is reported as “binds”, the binding [8] is reported as “binds” and the binding [9] is reported as “binds”. The binding [10] was “binds”.
For bHLH013-AD (from UniProt Q9LNJ5), the binding [1] was “binds”, the binding [4] was “binds” and the binding [5] was “binds”. The binding [11] was “binds” and the binding [6] was “no binding”.
bHLH013-HA (from UniProt Q9LNJ5) was tested, and the binding [7] was “binds”, the binding [8] was “binds” and the binding [12] was “binds”. The binding [9] was “binds”, the binding [13] was “no binding” and the binding [14] was “binds”. The binding [15] was “binds”.
With bHLH017-AD (from UniProt Q9ZPY8) the binding [1] was “binds”, the binding [2] was “binds weakly” and the binding [3] was “binds”. For the same substance, the binding [4] was “binds”, the binding [5] was “binds” and the binding [11] was “binds”. For the same substance, the binding [16] was “binds”, the binding [6] was “binds” and the binding [17] was “binds”.
In the case of bHLH017-HA (from UniProt Q9ZPY8), the binding [18] is reported as “binds”, the binding [19] is reported as “binds” and the binding [7] is reported as “binds”. For the same substance, the binding [8] was “binds”, the binding [12] was “binds” and the binding [9] was “binds”. For the same substance, the binding [20] was “binds”, the binding [13] was “binds” and the binding [21] was “binds”. The binding [10] was “binds”, the binding [14] was “binds” and the binding [15] was “binds”.

No constants are given. Whether binding was seen depends on the method and setting. Binding calls can cover weak binding; strength is not graded here. For some of these results: Tags and fused reporters may be left off the sequences shown. For some of these results: Binding seen in cells or lysates may run through a third protein.
